These are yes or no findings as the source states them, for the method shown. Binding seen in cells or lysates may run through a third protein. Some binding calls cover weakened binding; strength is not graded here.
Experiments:
[1] = target: NCOR2 (SMRT) (human (endogenous in MCF-7)) (UniProt Q9Y618); test: co-IP; anti-NCOR2 immunoprecipitation from MCF-7 lysate (IP buffer: 20 mM Tris-Cl pH 7.4, 150 mM NaCl, 5 mM MgCl2, 0.5% NP-40, 10% glycerol), Protein A/G agarose, Western blot; IgG as negative control
[2] = target: NCOR2 (SMRT) (human (endogenous in MCF-7)) (UniProt Q9Y618); test: co-IP; anti-NCOR2 immunoprecipitation from MCF-7 with overexpression of BQ, Western blot of the immunoprecipitate

Amino acid sequences for entries named in this document (tags omitted). A change or cut given only in a name is not applied to a line headed by its entry.
UniProt Q9Y618: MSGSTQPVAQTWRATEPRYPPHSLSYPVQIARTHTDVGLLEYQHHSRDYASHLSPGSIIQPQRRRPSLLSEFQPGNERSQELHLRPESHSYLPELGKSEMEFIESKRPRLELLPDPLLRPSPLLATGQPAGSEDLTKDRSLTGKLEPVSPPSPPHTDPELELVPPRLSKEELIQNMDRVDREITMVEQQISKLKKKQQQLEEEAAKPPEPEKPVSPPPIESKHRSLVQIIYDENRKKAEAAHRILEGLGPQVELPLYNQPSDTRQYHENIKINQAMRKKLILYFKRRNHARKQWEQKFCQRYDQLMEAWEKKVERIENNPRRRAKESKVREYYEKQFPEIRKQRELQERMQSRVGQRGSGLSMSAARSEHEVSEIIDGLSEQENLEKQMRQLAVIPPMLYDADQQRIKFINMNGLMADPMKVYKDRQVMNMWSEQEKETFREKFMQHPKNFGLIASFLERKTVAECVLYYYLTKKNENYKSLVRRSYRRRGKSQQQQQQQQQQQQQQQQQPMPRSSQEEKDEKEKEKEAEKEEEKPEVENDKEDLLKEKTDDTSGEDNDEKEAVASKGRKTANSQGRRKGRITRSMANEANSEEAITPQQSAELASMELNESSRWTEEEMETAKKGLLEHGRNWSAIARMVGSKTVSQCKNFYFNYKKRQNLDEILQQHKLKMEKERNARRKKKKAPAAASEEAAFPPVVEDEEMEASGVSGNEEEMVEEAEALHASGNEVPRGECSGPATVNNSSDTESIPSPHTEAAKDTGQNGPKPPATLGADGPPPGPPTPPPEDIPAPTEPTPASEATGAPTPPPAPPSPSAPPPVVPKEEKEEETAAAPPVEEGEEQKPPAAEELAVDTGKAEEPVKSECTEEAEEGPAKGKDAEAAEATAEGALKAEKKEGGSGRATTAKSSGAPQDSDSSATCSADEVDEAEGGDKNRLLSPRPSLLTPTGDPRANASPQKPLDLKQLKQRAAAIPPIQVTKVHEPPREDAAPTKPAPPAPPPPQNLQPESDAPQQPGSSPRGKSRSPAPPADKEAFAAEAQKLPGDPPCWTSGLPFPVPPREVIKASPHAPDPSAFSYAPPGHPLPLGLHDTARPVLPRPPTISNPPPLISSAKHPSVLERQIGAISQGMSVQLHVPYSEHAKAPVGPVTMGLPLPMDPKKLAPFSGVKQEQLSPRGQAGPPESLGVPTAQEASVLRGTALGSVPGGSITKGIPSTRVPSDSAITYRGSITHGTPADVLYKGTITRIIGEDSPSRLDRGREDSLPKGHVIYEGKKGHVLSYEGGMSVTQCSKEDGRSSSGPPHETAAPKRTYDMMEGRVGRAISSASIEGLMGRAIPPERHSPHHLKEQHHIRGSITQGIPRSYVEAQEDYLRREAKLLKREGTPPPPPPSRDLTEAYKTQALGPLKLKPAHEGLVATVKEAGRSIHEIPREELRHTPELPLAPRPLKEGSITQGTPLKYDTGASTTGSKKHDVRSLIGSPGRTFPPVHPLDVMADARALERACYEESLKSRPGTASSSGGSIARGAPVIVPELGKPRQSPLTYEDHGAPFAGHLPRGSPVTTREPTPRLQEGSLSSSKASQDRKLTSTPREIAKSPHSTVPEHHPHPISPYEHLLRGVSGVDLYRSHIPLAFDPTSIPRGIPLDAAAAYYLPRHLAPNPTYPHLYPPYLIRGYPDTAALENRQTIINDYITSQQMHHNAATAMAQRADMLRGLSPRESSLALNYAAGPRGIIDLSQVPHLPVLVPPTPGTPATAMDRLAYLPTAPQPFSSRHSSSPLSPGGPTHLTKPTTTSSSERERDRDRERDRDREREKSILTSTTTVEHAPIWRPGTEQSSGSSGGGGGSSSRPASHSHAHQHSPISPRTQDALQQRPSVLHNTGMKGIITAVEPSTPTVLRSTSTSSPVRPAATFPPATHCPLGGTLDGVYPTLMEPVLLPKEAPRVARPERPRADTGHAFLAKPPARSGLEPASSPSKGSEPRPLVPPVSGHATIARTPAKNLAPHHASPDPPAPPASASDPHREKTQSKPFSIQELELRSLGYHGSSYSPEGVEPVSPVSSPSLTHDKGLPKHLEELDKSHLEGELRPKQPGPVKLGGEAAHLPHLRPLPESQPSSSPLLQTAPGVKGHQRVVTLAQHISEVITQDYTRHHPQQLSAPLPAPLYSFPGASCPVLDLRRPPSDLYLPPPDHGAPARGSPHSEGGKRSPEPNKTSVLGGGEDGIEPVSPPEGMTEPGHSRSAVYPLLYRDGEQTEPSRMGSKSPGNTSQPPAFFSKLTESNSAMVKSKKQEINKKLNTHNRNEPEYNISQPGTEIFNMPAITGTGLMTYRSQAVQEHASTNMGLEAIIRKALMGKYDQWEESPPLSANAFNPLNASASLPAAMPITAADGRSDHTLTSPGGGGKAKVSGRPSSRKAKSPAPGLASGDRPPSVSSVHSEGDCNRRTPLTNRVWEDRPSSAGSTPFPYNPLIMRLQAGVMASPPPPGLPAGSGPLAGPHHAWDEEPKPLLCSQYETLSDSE
UniProt P19838: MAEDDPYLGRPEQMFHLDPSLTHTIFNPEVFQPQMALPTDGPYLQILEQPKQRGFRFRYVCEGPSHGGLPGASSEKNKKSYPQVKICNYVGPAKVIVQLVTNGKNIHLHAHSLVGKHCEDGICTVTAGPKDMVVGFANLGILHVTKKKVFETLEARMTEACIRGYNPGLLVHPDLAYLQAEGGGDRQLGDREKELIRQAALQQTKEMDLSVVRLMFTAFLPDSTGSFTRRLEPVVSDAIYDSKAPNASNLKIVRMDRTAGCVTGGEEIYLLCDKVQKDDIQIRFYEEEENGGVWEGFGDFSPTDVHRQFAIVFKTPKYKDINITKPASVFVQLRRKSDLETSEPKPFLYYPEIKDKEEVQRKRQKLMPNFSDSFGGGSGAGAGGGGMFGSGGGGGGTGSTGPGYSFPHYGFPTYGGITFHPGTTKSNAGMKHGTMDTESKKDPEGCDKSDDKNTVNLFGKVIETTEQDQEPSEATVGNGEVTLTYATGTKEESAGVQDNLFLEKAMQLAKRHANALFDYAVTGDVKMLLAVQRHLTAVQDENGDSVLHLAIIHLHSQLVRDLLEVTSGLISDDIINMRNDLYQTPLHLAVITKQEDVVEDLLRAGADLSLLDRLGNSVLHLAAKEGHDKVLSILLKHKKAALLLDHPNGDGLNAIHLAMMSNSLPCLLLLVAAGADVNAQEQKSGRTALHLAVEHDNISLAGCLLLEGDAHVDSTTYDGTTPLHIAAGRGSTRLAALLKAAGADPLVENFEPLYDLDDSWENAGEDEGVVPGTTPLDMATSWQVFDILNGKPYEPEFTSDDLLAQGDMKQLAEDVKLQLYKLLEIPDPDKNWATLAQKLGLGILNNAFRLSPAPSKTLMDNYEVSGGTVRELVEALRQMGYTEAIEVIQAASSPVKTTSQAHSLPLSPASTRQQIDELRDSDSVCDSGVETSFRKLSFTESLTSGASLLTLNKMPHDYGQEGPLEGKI

binding [1]: binds | binding [2]: binds
Substance: NF-κB p50–p65 heterodimer (from UniProt P19838 1-433; Q04206 1-551) (complex)

From paper PMC8036560
